This passage reports binding results from publication PMC4720877.

Sequences of proteins named here, by UniProt entry; tags and fusion partners are left off.
UniProt O00629: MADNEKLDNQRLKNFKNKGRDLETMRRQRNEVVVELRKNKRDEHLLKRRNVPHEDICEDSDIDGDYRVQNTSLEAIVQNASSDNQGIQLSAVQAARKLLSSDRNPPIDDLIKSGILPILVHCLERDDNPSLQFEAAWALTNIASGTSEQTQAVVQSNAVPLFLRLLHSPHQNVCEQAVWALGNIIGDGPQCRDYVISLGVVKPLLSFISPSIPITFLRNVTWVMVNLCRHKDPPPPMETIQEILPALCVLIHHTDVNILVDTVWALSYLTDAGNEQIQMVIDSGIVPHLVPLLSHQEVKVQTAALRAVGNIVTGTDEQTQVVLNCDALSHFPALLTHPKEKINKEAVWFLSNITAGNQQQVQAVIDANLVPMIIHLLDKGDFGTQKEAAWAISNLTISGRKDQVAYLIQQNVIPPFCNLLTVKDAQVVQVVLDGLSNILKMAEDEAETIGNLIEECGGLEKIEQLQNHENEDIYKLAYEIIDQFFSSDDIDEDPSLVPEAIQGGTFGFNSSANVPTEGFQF
UniProt O14980: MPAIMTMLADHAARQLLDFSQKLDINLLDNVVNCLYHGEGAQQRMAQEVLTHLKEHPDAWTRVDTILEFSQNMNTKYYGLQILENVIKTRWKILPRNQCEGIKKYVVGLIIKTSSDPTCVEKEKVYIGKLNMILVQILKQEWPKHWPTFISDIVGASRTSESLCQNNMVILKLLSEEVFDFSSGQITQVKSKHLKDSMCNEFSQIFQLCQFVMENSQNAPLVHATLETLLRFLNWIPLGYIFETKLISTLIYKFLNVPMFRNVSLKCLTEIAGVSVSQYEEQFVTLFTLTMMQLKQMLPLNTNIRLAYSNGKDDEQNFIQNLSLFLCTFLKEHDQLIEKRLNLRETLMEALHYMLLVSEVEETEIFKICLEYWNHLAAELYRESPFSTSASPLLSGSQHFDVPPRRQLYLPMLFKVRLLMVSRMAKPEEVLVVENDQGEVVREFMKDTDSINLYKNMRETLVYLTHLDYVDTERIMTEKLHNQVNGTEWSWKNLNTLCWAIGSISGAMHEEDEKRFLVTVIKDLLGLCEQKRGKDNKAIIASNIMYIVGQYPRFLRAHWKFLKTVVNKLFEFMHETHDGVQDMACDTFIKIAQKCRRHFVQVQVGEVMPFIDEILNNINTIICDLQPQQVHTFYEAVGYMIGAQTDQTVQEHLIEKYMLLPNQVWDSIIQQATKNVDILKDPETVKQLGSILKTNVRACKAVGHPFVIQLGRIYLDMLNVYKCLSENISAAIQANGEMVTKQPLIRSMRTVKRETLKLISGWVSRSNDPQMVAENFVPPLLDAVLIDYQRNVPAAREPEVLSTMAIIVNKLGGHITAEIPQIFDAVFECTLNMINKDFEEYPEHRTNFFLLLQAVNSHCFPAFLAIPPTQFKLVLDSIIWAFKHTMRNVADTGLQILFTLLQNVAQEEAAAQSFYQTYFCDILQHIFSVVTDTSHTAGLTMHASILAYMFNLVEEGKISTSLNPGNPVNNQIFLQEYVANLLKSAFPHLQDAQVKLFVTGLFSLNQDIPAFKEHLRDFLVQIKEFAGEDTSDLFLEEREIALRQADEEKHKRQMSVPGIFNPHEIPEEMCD
UniProt P52294: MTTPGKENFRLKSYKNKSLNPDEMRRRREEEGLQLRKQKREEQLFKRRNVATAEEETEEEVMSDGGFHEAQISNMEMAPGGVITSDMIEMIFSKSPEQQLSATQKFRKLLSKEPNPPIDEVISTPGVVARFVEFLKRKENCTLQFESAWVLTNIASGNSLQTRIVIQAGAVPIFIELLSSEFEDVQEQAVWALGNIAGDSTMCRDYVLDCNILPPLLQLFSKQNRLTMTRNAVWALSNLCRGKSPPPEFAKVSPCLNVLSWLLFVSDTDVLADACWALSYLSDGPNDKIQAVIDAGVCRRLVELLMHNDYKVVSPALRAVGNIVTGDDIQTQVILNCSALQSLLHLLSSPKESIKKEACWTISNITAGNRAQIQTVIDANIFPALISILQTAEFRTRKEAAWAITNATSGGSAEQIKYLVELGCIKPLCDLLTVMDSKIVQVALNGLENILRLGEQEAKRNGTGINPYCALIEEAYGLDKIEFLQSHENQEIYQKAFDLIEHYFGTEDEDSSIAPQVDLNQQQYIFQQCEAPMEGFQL

Results are given in words; binding and its absence hold for the method and conditions named. For some of these results: In cells and extracts the contact can be indirect. Some results given as binding are weak or reduced against the parent protein; the word gives no strength.

Assay [1] deals with T1, TG2 (endogenous, JHH-7 cells) (human (endogenous in JHH-7)) (UniProt P21980).
T1 sequence: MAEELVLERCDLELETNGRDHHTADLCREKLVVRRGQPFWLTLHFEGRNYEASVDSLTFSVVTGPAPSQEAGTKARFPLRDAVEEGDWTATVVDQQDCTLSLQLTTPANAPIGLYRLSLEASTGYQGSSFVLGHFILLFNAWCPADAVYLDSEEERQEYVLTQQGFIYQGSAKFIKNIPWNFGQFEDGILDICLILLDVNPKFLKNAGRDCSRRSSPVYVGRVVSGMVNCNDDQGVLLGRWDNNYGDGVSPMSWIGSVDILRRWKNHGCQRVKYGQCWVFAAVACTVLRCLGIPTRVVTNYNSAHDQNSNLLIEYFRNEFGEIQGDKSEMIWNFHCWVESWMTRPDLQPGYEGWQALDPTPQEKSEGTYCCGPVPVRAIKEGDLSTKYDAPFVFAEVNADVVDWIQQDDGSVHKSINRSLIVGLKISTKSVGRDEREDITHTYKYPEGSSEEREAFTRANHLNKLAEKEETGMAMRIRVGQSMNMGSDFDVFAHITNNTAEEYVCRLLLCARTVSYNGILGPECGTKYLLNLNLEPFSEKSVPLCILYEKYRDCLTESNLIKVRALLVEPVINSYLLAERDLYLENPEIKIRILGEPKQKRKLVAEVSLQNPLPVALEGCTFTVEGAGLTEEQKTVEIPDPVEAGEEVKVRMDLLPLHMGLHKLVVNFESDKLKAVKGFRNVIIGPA
Kind of assay: co-IP; JHH-7 cells treated 5 h with 0.1% EtOH or 10 μM ACR; lysis in Tris pH 7.4, 1% Triton X-100; 500 μg lysate protein with Dynabeads protein G carrying anti-TG2 CUB7402, 15 min, room temperature; importin-α3 and -β detected by western blot (1.9- and 1.3-fold more after ACR).

For assay [2], the target named is T1, TG2 (endogenous, JHH-7 cells) (human (endogenous in JHH-7)). Kind of assay: proximity ligation; Duolink in situ PLA in fixed, permeabilised JHH-7 cells treated with 0.1% EtOH or 10 μM ACR (3, 5, 7 h); mouse anti-TG2 CUB7402 with rabbit anti-KPNA4, anti-SRP-1 or anti-importin-β.
In assay [3] the target is complex of GST-tagged importin-α3 and HA-tagged importin-β (UniProt O00629). Put plainly: pull-down; competition: GST-importin-α3/HA-importin-β complex on glutathione sepharose 4B beads, recombinant human TG2 (about 1.5 pmol), 1 h, room temperature, with peptide SV40 NLS, TG2 NES or TG2 NLS added; TG2 detected by western blot; both purified.
A further assay addresses GST-tagged exportin-1 (UniProt O14980). Kind of assay: pull-down; GST-tagged exportin-1 on glutathione sepharose 4B beads (six times molar excess), recombinant human TG2 (about 1.5 pmol), 1 h, room temperature, with or without 0.1% EtOH, 1 mM ACR, 10 μg/ml LMB; TG2 detected by western blot; both purified.
In assay [4] the target is complex of GST-tagged importin-α5 and HA-tagged importin-β (UniProt P52294). Kind of assay: pull-down; GST-tagged importins or GST-importin-α/HA-importin-β complexes on glutathione sepharose 4B beads (six times molar excess); 100 ng (about 1.5 pmol) recombinant human TG2 added, 1 h, room temperature, Tris buffer pH 7.6, 150 mM NaCl; TG2 detected by western blot; some samples with Z-DON, 500 μM ATP, 0.1% EtOH or 20 μM ACR; both purified.

For another assay, the target named is GST-tagged importin-β (UniProt Q14974). The description is as above.
The target of assay [5] is complex of GST-tagged importin-α3 and HA-tagged importin-β (UniProt O00629). The description is as above.
Another assay has as its target GST-tagged importin-α5 (UniProt P52294). The description is as above.
The target in a further assay is GST-tagged importin-α3 (UniProt O00629). The assay is described as above.

For the molecule “importin-β (endogenous, JHH-7 cells) (from UniProt Q14974 1-876)”, the binding entry in assay [1] and in [2] was “binds” each time.

“importin-α5 (endogenous, JHH-7 cells) (from UniProt P52294 1-538)”: in assay [2], the binding result is given as “binds”.

As for “importin-α3 (endogenous, JHH-7 cells) (from UniProt O00629 1-521)”, the binding result in assay [1] and in assay [2] was “binds” in each case.

In the case of AEKEETGMAMRIRV [14-amino acid TG2 NLS peptide …], in assay [3], the binding result is recorded as “binds”.

B1: Recombinant human TG2 (transglutaminase 2) (enzyme, UniProt P21980 1-687)
chain: MAEELVLERCDLELETNGRDHHTADLCREKLVVRRGQPFWLTLHFEGRNYEASVDSLTFSVVTGPAPSQEAGTKARFPLRDAVEEGDWTATVVDQQDCTLSLQLTTPANAPIGLYRLSLEASTGYQGSSFVLGHFILLFNAWCPADAVYLDSEEERQEYVLTQQGFIYQGSAKFIKNIPWNFGQFEDGILDICLILLDVNPKFLKNAGRDCSRRSSPVYVGRVVSGMVNCNDDQGVLLGRWDNNYGDGVSPMSWIGSVDILRRWKNHGCQRVKYGQCWVFAAVACTVLRCLGIPTRVVTNYNSAHDQNSNLLIEYFRNEFGEIQGDKSEMIWNFHCWVESWMTRPDLQPGYEGWQALDPTPQEKSEGTYCCGPVPVRAIKEGDLSTKYDAPFVFAEVNADVVDWIQQDDGSVHKSINRSLIVGLKISTKSVGRDEREDITHTYKYPEGSSEEREAFTRANHLNKLAEKEETGMAMRIRVGQSMNMGSDFDVFAHITNNTAEEYVCRLLLCARTVSYNGILGPECGTKYLLNLNLEPFSEKSVPLCILYEKYRDCLTESNLIKVRALLVEPVINSYLLAERDLYLENPEIKIRILGEPKQKRKLVAEVSLQNPLPVALEGCTFTVEGAGLTEEQKTVEIPDPVEAGEEVKVRMDLLPLHMGLHKLVVNFESDKLKAVKGFRNVIIGPA
Turning to B1, the binding result (in [3]; in the assay with GST-tagged exportin-1; in assay [4]; with GST-tagged importin-β; in [5]; with GST-tagged importin-α5) was “binds” throughout. Further, the binding entry with GST-tagged importin-α3 was “binds”.
